Source: US20230097801A1, “METHODS OF INCREASING CELL PHAGOCYTOSIS” (National Health Research Institutes, priority 2021, published 2023)
Some entries share one result that the patent states for a list of compounds.

Tested on: CD47
Experiment: Flow cytometry, anti-human CD47 CC2C6 antibody binding on Raji cell surface
Format: cell-based
Conditions: FIGS. 1A-1C and Table 2
Experimental: Binding between CD47 and SIRPα was studied by measuring the level of CD47 binding using any suitable method. Flow cytometric analysis is useful to quantify the level of binding of CD47 to antibody CC2C6, which is then subjected to an immune-staining procedure using fluorochrome-conjugated secondary antibody followed by analysis of the immune-staining signal with a flow cytometry instrument to obtain the level of the CD47-CC2C6 binding. In another method, analysis of CD47 is performed using SIRPα-Fc formed from SIRPα fused with human IgG1, which is then subjected to an immune-staining procedure using fluorochrome-conjugated secondary antibody against human IgG1, followed by analysis of the immune-staining signal. SIRPα is expressed on the surface of a myeloid cell such as macrophage, monocyte, neutrophil, or dendritic cell. Alternatively, SIRPα is fused with human IgG1 to form a SIRPα-Fc recombinant protein. […] An anti-cancer agent (e.g., rituximab) can be used together with a compound of formula (I). Useful anti-cancer agents are described above including anti-PD-L1 antibodies, anti-CD20 antibodies, anti-HER2 antibodies, anti-EGFR antibodies, and anti-CD47 antibodies. Other suitable anti-cancer agents are chemotherapeutic agents such as doxorubicin, epirubicin, idarubicin, methotrexate, mitoxantrone, oxaliplatin, and cyclophosphamide. […]

Row | SMILES | IC50 fold lower than that of Comparative Compound PQ912
1 | O=C1NC[C@H](c2ccc(-c3cnc(C(F)(F)F)s3)cc2)N1c1ccc2[nH]cnc2c1 [Compound 30] | at least 3 fold
2 | O=C1NC[C@H](c2ccc(-c3csc(C(F)(F)F)c3)cc2)N1c1ccc2[nH]cnc2c1 [Compound 32] | at least 3 fold
